The values below come from article PMC10619437.

The chains behind the UniProt entries cited, without tags or fusion partners. Where a name states a change or a piece, a line headed by the entry shows the natural chain unless it says otherwise.
UniProt P61586: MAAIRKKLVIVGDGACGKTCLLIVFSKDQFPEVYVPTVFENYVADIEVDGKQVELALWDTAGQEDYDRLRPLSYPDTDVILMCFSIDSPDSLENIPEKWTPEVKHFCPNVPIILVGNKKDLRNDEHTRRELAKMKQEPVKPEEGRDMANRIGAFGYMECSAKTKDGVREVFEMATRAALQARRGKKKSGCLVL
UniProt P21980: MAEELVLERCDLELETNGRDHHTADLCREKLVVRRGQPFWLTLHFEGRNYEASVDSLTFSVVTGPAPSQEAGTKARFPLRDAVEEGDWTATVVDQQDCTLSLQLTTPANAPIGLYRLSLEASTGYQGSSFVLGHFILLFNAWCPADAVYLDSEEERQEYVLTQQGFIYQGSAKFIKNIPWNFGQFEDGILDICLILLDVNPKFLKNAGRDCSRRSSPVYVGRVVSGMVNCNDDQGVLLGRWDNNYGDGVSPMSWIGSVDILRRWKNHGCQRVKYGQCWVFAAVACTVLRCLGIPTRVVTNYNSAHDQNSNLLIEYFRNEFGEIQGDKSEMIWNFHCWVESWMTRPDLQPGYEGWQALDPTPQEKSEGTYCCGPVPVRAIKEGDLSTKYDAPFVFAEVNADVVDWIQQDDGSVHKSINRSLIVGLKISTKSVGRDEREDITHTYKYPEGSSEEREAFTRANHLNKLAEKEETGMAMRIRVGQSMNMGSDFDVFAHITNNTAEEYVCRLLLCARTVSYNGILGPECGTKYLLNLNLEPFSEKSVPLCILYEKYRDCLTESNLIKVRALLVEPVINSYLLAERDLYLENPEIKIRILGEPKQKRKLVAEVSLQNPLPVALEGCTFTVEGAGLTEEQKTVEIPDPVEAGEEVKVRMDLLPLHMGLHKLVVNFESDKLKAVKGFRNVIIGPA

In this experiment the target is Ras homolog family member A (human (endogenous in HMC)) (UniProt P61586). The experiment is described as follows: co-IP; RhoA immunoprecipitated with rabbit anti-RhoA antibody from vesicular fractions (C1) of HMC with or without pIgA1 (10 ug/mL, 48 h); TGase2 and RhoA detected by Western blot.

No constants are given. Whether binding was seen depends on the method and setting. Binding seen in cells or lysates may run through a third protein. Binding can be weak; no strength is given.

With “Transglutaminase 2 (from UniProt P21980) (enzyme)”, the binding result is on record as “binds”.
